Results: PubChem BioAssay AID588590 (National Center for Advancing Translational Sciences (NCATS), 2011)
“And” between values parts separate entries of the source, which are not always exact repeats. Equal values may be shown once. Out of some 390,000 compounds screened, about 4,000 (1%) were called active. This list was built around the results that the source calls inconclusive (neither active nor inactive); the mix of calls is not that of the screen. Calls come from the whole dose curve; as a rule, active = well fitted inhibition curve with a large enough effect; inconclusive = small, poorly fitted or top-dose-only effect, or another doubt; inactive = no such curve, though single readings can be large or run the other way. Potencies beside an inconclusive call are fits to weak or partial responses and may not hold up. Some structures have more than one record in an assay (separate samples or runs), and their calls can disagree.

By UniProt entry, the sequences of proteins in these tests, tags left out. Where a name states a change or a piece, a line headed by the entry shows the natural chain unless it says otherwise.
UniProt Q9UNA4: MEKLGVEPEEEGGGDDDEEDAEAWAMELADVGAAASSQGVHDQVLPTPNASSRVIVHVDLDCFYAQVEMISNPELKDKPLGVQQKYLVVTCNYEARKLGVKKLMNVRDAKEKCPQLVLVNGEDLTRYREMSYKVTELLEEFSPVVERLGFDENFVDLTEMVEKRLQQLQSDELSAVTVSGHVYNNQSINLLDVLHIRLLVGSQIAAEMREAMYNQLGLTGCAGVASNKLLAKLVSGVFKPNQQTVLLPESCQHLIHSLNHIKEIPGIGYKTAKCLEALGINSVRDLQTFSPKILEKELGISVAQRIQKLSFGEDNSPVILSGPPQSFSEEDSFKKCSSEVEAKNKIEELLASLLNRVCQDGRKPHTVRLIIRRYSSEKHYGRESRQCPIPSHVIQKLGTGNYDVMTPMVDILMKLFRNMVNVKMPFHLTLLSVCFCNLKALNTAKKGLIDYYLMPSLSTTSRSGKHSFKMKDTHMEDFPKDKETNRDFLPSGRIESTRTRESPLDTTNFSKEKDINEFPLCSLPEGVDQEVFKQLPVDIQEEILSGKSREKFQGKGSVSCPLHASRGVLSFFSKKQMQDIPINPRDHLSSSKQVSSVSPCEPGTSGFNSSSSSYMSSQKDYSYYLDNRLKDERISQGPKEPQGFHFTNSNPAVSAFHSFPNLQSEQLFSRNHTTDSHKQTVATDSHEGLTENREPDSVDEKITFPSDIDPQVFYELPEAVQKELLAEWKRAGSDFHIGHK

Molecular target: DNA polymerase iota (Homo sapiens) (UniProt Q9UNA4)
Test: qHTS for Inhibitors of Polymerase Iota
Conditions: Pol iota fluorescent replication assay, 10 min; series mostly up to 115 µM
Summary of the method: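 Fluorescent replication assay read twice, at 0 min and 10 min after adding 50 nM (final) substrate. Enzyme (10 nM) and compounds were first incubated 15 min at room temperature; enzyme-free buffer wells were negative controls.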
Potency is the fitted concentration of half-maximal effect.

| Structure (SMILES) | Potency |
| --- | --- |
| COc1cccc2cc(C(=O)C3=C(O)C(=O)N(c4cc(C)on4)C3c3cccs3)oc12 (stereo not given) | inconclusive: 17.8 µM [inhibitor, partial curve, poor fit] |
| O=S(=O)(NC1CCc2ccccc21)c1ccc(S(=O)(=O)N2CCCC2)cc1 (stereo not given) | inconclusive: 22.4 µM [inhibitor, partial curve, poor fit] |
| COc1cc(F)cc(C2=CC(=O)C[C@H](c3ccc(F)cc3)C2)c1 | inconclusive: 14.1 µM [inhibitor, full curve, poor fit] |
| CC(/C=N/n1c(-c2ccncc2)n[nH]c1=S)=C\c1ccco1 | active: 20 µM |
| CC(C)N(C(=O)[C@H]1C[C@H](CC(=O)NCc2ccco2)C(=O)N2CCc3c([nH]c4cc(-c5ccco5)ccc34)[C@]12C)C(C)C | inconclusive: 28.2 µM [inhibitor, full curve, poor fit] |
| Cc1ccc(C2/C(=C(/O)c3ccccc3)C(=O)C(=O)N2CCN2CCOCC2)o1 (stereo not given) | inactive |
| COC(=O)CCC(=O)NC(=S)Nc1ccc(S(=O)(=O)N2CCCC2)cc1 | inconclusive: 3.98 µM [inhibitor, partial curve, poor fit] |
| Cc1oc(-c2ccccc2Cl)nc1CS(=O)CC(=O)NCc1ccc(Cl)cc1 (stereo not given) | active: 79.4 µM |
| CC(=O)C1=C(O)C(=O)N(CC#N)C1c1cccs1 (stereo not given) | inconclusive: 14.1 µM [inhibitor, partial curve] |
| CC(=O)Oc1ccc2nonc2c1OC(C)=O | active: 3.55 µM |
| O=C(Nc1cc(C(F)(F)F)ccc1-n1cncn1)c1ccc([N+](=O)[O-])o1 | inconclusive: 20 µM [inhibitor, partial curve, poor fit] |
| COc1cccc(CNC(=O)C(C)n2ncn3cccc3c2=O)c1OC (stereo not given) | inconclusive: 89.1 µM [inhibitor, single point] |
| CCOC(=O)c1sc(=S)n(Cc2ccccc2)c1N | inconclusive: 35.5 µM [inhibitor, partial curve, poor fit] |
| CCCCNC(=O)/C=C/c1ccc(S(=O)(=O)Nc2ccc(OC)cc2)cc1 | inconclusive: 79.4 µM [inhibitor, partial curve, poor fit] |
| CN(C)c1ccc(C2CCc3ccccc3N2C(=O)c2ccccc2)cc1 (stereo not given) | inactive |
| COC(=O)C1=C(O)/C(=C\c2ccc(CNC(=O)C(=O)Nc3ccc(C)cc3)o2)N=C1C | inconclusive: 12.6 µM [inhibitor, full curve, poor fit] |
| CCCCN(CCC(=O)O)c1ccc(/C=C/c2ccnc3ccccc23)cc1 | inactive |
| c1ccc(-c2nc(CSc3nnnn3-c3ccccc3)cs2)cc1 | inconclusive: 22.4 µM [inhibitor, partial curve, poor fit] |
| Cc1oc2c(cc(NS(=O)(=O)c3ccc(C(C)C)cc3)c3ccccc32)c1C(=O)O | inconclusive: 1.26 µM [inhibitor, full curve, poor fit] and inconclusive: 22.4 µM [inhibitor, partial curve, poor fit] |
| COc1ccccc1-n1c(SCC(=O)Nc2nnc(C)s2)nc2c(c1=O)SCC2 | inconclusive: 39.8 µM [inhibitor, partial curve] |

Compounds listed so far that contain fluorine:

| Structure (SMILES) | Potency |
| --- | --- |
| COc1cc(F)cc(C2=CC(=O)C[C@H](c3ccc(F)cc3)C2)c1 | inconclusive: 14.1 µM [inhibitor, full curve, poor fit] |
| O=C(Nc1cc(C(F)(F)F)ccc1-n1cncn1)c1ccc([N+](=O)[O-])o1 | inconclusive: 20 µM [inhibitor, partial curve, poor fit] |

Later entries

| Structure (SMILES) | Potency |
| --- | --- |
| O=C1N=c2ccccc2=C1c1sc(NS(=O)(=O)Cc2ccccc2)nc1O | inconclusive: 89.1 µM [inhibitor, single point] |
| O=C(c1cc2c(ccc3ccccc32)oc1=O)N1CCN(CCO)CC1 | inconclusive: 89.1 µM [inhibitor, single point] |
| COc1cc2c(O)cc(C(=O)O)c(-c3cc(OC)c(OC)c(OC)c3)c2cc1OC | inconclusive: 89.1 µM [inhibitor, single point] |
| CCc1ccc2[nH]c(=O)c(CN(Cc3ccccc3)Cc3nnnn3Cc3ccco3)cc2c1 | inconclusive: 14.1 µM [inhibitor, partial curve, poor fit] |
| COCCNC(=O)CCC1CCN(C/C=C/c2ccccc2OC)CC1 | inconclusive: 79.4 µM [inhibitor, partial curve, poor fit] |
| CCN(CC)CCNC(=O)C1(O)c2cc(Br)ccc2NC(=O)N1c1ccccc1 (stereo not given) | inconclusive: 100 µM [inhibitor, partial curve, poor fit] |
| Cc1ccc(-c2onc3ccc(C(=O)/C=C/N(C)C)cc23)cc1 | inactive |
| O=C(CSC1=NC(=O)C(c2ccccc2)C(=O)N1)Nc1ccccc1[N+](=O)[O-] (stereo not given) | inconclusive: 22.4 µM [inhibitor, partial curve] |
| C=CCSc1nc(=O)n2ccc(C)cc2n1 | inconclusive: 44.7 µM [inhibitor, partial curve] |
| N#CCC(=O)Nc1ccc(C(=O)N2CCN(c3ccccn3)CC2)cc1 | inconclusive: 50.1 µM [inhibitor, partial curve, poor fit] |
| CC(C)(C)NS(=O)(=O)c1ccc(NC(=O)C2CCCCC2)cc1 | inactive |
| CCS(=O)(=O)c1ncc(Cl)c(C(=O)Nc2ccc(S(=O)(=O)N3CCC(C)CC3)cc2)n1 | inconclusive: 12.6 µM [inhibitor, partial curve, poor fit] |
| CCCN1CCC(Oc2cccc(C(=O)NCCc3ccccc3)c2)CC1 | inactive |
| O=C(/C=C/Nc1ccc(S(=O)(=O)Nc2cnc3ccccc3n2)cc1)c1cccnc1 | inconclusive: 4.47 µM [inhibitor, full curve, poor fit] |
| O=S(=O)(O)c1ccc2c(N=Nc3ccc(S(=O)(=O)O)c4ccccc34)c(O)c(S(=O)(=O)O)cc2c1 | active: 44.7 µM |
| COCCCNC(=O)C1CCN(C(=O)c2cnn(-c3ccccc3)c2-n2cccc2)CC1 | inactive |
| O=C(Oc1ccc[nH]c1=O)c1cc([N+](=O)[O-])cc([N+](=O)[O-])c1 | inconclusive: 4.47 µM [inhibitor, full curve] |
| CCOC(=O)C1=C(C)N(CCCCCC(=O)O)C(=O)NC1c1ccccc1OS(=O)(=O)c1ccc(C)cc1 (stereo not given) | inconclusive: 10 µM [inhibitor, partial curve, poor fit] |
| C=CCn1c(SCC(=O)NCc2ccco2)nc2sc3c(c2c1=O)CCC3 | inconclusive: 2 µM [inhibitor, full curve, poor fit] |
| CCOC(=O)c1cc2c(ccn2C)n1Cc1ccccc1Cl | inconclusive: 35.5 µM [inhibitor, single point] |

| Structure (SMILES) | Potency |
| --- | --- |
| Cc1ccc(NC(=O)CCC(=O)c2cccs2)nc1 | inconclusive: 35.5 µM [inhibitor, partial curve, poor fit] |
| CCOc1ccccc1CNC(=O)c1ccc(N2Cc3ccccc3Oc3ncccc32)s1 | inactive |
| Cc1cc(C)nc(SC(C)C(=O)O)n1 (stereo not given) | inconclusive: 89.1 µM [inhibitor, partial curve, poor fit] |
| Fc1ccccc1N1CCN(C2CCN(Cc3c[nH]c4ccccc34)CC2)CC1 | inconclusive: 79.4 µM [inhibitor, partial curve] |
| O=S(=O)(c1ccccc1)N(F)S(=O)(=O)c1ccccc1 | inconclusive: 15.8 µM [inhibitor, partial curve, poor fit] |
| O=C(Nc1cc(Cl)cc(Cl)c1)c1ccc2c(c1)N(Cc1cccc(Cl)c1)C(=O)c1ccccc1S2=O (stereo not given) | inactive |
| COC(=O)c1ccc(C2c3c(oc4ccccc4c3=O)C(=O)N2c2nc(C)c(C(=O)OC)s2)cc1 (stereo not given) | inconclusive: 89.1 µM [inhibitor, partial curve, poor fit] |
| CCC(=O)NCCCc1nc(-c2ccccc2)no1 | inconclusive: 39.8 µM [inhibitor, single point] |
| C#CCOCCOCCOCCNc1nc(N2CCN(C(=O)C([C@@H](C)CC)n3cc(C(N)COC(=O)C(F)(F)F)nn3)CC2)nc(N2CCN(C(=O)C([C@@H](C)CC)n3cc(C(N)CC(C)C)nn3)CC2)n1 (stereo not given in full) | inconclusive: 25.1 µM [inhibitor, single point] |
| COc1cc(/C=C2\SC(=Nc3ccccc3)NC2=O)cc(Cl)c1O | inactive |
| CCOc1ccc2nc(NC(=O)CSc3nc(-c4ccccc4)c(C#N)c(=O)[nH]3)sc2c1 | inconclusive: 28.2 µM [inhibitor, single point] |
| CCOC(=O)c1ccc(N2C(=O)c3n[nH]c(C)c3C2c2ccccc2OC)cc1 (stereo not given) | inconclusive: 79.4 µM [inhibitor, partial curve, poor fit] |
| Cc1ccccc1Cn1c2ccccc2c2cnn(CC(=O)NC(C)CCc3ccccc3)c(=O)c21 (stereo not given) | inactive |
| COc1cc(C)c(-c2cc(C(=O)O)c(C)o2)cc1C(C)C | inconclusive: 70.8 µM [inhibitor, partial curve] |
| O=S(=O)(Nc1cc(S(=O)(=O)N2CCCC2)ccc1O)c1ccc(Cl)s1 | inconclusive: 7.94 µM [inhibitor, partial curve] |
| O=C(O)COc1ccccc1/C=C1\SC(=S)N(/N=C/c2ccccc2O)C1=O | inconclusive: 20 µM [inhibitor, partial curve, poor fit] |
| COc1ccc(S(=O)(=O)N2CCC(n3cnc4ccccc43)CC2)cc1 | inactive |
| COC(=O)[C@@H]1C[C@H]2CC[C@H](O)C[C@H]2N1Cc1ccc(C(C)(C)C)cc1 | inconclusive: 14.1 µM [inhibitor, partial curve, poor fit] |
| CCOc1ccc(NC(=O)c2cccc3c2C(=O)N(CC2CCCO2)C3)cc1 (stereo not given) | inconclusive: 70.8 µM [inhibitor, partial curve] |
| Cc1cccnc1NC(=S)NC(=O)/C=C/c1ccco1 | inconclusive: 1.41 µM [inhibitor, full curve, poor fit] |
